The target in experiment [1] is PTPRA (CRISPRa-induced on K562 cells) (human (endogenous in K562)) (UniProt P18433). The experiment is described as follows: CRISPRa enrichment screen (magnetic bead selection of cells, deep sequencing of sgRNAs); biotinylated ligand (1 µM) on streptavidin microbeads with K562 sunCas9 cells carrying pooled sgRNA libraries (mini-library, TM1 or TM2+); 4°C, 30 min, MACS buffer; up to three rounds of MACS positive selection; hits called with casTLE and ESP score; only the binder purified.

Chains of the proteins cited; added tags and fusions are not shown. Residues count along the entry.
UniProt P18433, residues 20-802: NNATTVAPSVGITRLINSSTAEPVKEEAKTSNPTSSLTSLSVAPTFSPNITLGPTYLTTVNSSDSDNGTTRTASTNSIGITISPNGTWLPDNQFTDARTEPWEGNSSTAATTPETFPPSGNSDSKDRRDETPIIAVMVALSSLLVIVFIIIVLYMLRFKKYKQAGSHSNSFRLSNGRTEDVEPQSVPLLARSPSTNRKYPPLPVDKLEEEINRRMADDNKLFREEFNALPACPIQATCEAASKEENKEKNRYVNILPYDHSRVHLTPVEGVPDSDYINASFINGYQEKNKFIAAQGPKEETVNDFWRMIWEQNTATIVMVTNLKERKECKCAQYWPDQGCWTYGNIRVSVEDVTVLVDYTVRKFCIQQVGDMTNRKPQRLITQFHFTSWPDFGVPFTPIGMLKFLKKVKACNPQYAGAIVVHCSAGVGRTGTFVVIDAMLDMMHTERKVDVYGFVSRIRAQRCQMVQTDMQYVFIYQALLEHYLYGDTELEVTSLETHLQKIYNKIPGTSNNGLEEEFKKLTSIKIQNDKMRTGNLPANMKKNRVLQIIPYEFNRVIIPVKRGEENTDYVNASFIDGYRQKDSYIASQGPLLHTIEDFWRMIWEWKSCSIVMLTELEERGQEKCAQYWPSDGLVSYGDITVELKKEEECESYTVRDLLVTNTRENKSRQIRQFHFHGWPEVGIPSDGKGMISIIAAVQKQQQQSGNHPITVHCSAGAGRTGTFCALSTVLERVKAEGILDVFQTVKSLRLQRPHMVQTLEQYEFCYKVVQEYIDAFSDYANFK
UniProt P16671: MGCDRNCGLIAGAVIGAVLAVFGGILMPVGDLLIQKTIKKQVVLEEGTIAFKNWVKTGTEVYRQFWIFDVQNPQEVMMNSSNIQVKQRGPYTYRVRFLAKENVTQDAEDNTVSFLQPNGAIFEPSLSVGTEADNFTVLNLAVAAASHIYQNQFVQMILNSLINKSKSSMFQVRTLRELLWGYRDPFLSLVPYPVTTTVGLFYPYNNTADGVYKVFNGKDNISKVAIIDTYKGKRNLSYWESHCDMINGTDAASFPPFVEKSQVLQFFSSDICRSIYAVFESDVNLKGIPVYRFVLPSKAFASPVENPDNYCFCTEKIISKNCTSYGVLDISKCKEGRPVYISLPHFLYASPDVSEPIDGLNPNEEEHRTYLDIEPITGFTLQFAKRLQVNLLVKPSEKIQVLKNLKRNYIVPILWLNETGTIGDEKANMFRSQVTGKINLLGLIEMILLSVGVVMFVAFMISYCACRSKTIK

A further experiment has as its target T1, PTPRJ ECD (human) (UniProt Q12913).
T1 sequence (chain, biotin where captured on the streptavidin chip): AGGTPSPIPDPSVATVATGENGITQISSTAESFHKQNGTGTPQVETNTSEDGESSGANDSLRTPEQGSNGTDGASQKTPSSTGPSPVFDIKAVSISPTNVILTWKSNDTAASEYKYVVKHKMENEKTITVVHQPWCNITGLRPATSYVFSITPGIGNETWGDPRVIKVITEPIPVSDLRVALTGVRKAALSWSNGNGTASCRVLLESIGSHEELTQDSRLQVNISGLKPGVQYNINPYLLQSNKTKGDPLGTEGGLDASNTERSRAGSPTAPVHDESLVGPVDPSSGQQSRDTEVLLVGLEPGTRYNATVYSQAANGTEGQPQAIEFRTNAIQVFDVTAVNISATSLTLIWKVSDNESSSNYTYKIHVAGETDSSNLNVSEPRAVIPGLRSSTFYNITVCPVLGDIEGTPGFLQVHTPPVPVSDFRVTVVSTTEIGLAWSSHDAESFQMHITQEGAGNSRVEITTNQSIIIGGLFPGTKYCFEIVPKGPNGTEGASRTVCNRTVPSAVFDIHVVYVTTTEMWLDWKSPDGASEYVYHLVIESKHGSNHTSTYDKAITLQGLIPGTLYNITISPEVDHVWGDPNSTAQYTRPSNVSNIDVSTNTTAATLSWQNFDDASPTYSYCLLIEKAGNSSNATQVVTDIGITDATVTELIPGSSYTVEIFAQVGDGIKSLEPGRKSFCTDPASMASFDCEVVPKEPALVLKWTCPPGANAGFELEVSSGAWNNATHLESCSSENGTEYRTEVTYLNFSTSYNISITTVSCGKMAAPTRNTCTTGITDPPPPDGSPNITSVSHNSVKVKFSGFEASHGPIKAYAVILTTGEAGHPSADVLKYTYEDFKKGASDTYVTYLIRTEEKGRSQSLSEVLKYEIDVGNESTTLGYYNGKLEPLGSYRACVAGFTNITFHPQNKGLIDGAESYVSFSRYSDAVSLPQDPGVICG
As to the kind of experiment: SPR; Biacore T100; biotinylated receptor ECD or hit protein captured on a streptavidin chip (~100-200 RU), non-biotinylated secreted ligand as analyte in twofold dilutions; HBS-P+ buffer; 1:1 Langmuir model or equilibrium fit; both purified.

For another experiment, the target named is T2, human PTPRU-ECD (human) (UniProt Q92729).
T2 sequence (chain, biotin where captured on the streptavidin chip): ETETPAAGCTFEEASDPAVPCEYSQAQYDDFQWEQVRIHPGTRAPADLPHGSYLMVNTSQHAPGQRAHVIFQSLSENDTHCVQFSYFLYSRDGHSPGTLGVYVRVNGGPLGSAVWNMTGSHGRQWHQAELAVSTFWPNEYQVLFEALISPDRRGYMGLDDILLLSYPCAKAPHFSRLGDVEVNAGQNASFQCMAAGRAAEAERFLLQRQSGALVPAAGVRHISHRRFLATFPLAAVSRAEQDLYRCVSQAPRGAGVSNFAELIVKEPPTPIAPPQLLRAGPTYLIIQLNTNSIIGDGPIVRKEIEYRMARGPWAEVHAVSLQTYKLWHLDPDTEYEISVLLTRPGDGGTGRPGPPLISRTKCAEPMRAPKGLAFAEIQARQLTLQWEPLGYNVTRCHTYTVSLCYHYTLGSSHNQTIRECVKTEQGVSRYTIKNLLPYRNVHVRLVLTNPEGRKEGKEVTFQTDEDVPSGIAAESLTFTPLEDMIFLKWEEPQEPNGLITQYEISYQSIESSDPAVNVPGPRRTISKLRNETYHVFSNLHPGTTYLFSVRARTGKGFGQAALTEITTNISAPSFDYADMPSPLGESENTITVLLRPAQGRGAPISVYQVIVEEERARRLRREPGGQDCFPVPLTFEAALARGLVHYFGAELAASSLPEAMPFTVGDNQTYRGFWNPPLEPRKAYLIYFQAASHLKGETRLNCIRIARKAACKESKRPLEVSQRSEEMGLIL
The description is as above.

The target in experiment [2] is FLAG-tagged full-length PTPRA (human) (UniProt P18433). The experiment is described as follows: flow cytometry on cells; ligand tetramerised on streptavidin-Alexa647 (4:1), titrated 1:1 from 200 or 400 nM tetramer, on K562 cells lentivirally transduced with FLAG-tagged full-length receptor against untransduced K562; 4°C, MACS buffer; only the binder purified. On the technique in general: Flow cytometry measures light scatter and fluorescence of single cells or particles in a stream.

Experiment [3] concerns the target CD36 (CRISPRa-induced on K562 cells) (human (endogenous in K562)) (UniProt P16671). As to the kind of experiment: CRISPRa enrichment screen (magnetic bead selection of cells, deep sequencing of sgRNAs); biotinylated ligand (1 µM) on streptavidin microbeads with K562 sunCas9 cells carrying pooled sgRNA libraries (mini-library, TM1 or TM2+); 4°C, 30 min, MACS buffer; up to three rounds of MACS positive selection; hits called with casTLE and ESP score; only the binder purified.

In another experiment the target is full-length CD36 (human) (UniProt P16671). As to the kind of experiment: flow cytometry on cells; ligand tetramerised on streptavidin-Alexa647 (400 nM) on 293F cells transfected with full-length CD36 against control cells; 1 hr, 4°C, MACS buffer; only the binder purified.

Results on six molecules are retold here after PMC9578707.

These are yes or no findings as the source states them, for the method shown. Some entries that bind do so weakly or less than the wild type.

B1: growth arrest specific 1 protein (ligand, UniProt P54826 40-317)
chain: LAHGRRLICWQALLQCQGEPECSYAYNQYAEACAPVLAQHGGGDAPGAAAAAFPASAASFSSRWRCPSHCISALIQLNHTRRGPALEDCDCAQDENCKSTKRAIEPCLPRTSGGGAGGPGAGGVMGCTEARRRCDRDSRCNLALSRYLTYCGKVFNGLRCTDECRTVIEDMLAMPKAALLNDCVCDGLERPICESVKENMARLCFGAELGNGPGSSGSDGGLDDYYDEDYDDEQRTGGAGGEQPLDDDDGVPHPPRPGSGAAASGGRGDLPYGPGRRS
modifications: biotin (biotinylated in vitro with BirA) where used on beads or as tetramer
On to B1, for which the binding entry in experiment [1] is reported as “binds”; with PTPRJ ECD (human), “no binding”; in the experiment with human PTPRU-ECD (human), “no binding”; in experiment [2] it was “binds”.

B2: SPRC (ligand, UniProt P09486 18-303)
chain: APQQEALPDETEVVEETVAEVTEVSVGANPVQVEVGEFDDGAEETEEEVVAENPCQNHHCKHGKVCELDENNTPMCVCQDPTSCPAPIGEFEKVCSNDNKTFDSSCHFFATKCTLEGTKKGHKLHLDYIGPCKYIPPCLDSELTEFPLRMRDWLKNVLVTLYERDEDNNLLTEKQKLRVKKIHENEKRLEAGDHPVELLARDFEKNYNMYIFPVHWQFGQLDQHPIDGYLSHTELAPLRAPLIPMEHCTTRFFETCDLDNDKYIALDEWAGCFGIKQKDIDKDLVI
modifications: biotin (biotinylated in vitro with BirA)
Turning to B2, the binding entry is “no binding” in experiment [3] and “no binding (tested: 400 nM tetramer)” with full-length CD36 (human).

B3: VWC2L (ligand, UniProt B2RUY7 22-222)
chain: AAISHEDYPADEGDQISSNDNLIFDDYRGKGCVDDSGFVYKLGERFFPGHSNCPCVCALDGPVCDQPECPKIHPKCTKVEHNGCCPECKEVKNFCEYHGKNYKILEEFKPSPCEWCRCEPSNEVHCVVADCAVPECVNPVYEPEQCCPVCKNGPNCFAGTTIIPAGIEVKVDECNICHCHNGDWWKPAQCSKRECQGKQTV
modifications: biotin (biotinylated in vitro with BirA)
Turning to B3, the binding entry (in experiment [3]; with full-length CD36 (human)) was “binds” each time.

B4: SCRG1 (ligand, UniProt O75711 21-98)
chain: MPANRLSCYRKILKDHNCHNLPEGVADLTQIDVNVQDHFWDGKGCEMICYCNFSELLCCPKDVFFGPKISFVIPCNNQ
modifications: biotin (biotinylated in vitro with BirA)
As for B4, the binding entry (in experiment [3]; with full-length CD36 (human)) was “binds” each time.

B5: LY6H (ligand, UniProt O94772 26-115)
chain: LWCQDCTLTTNSSHCTPKQCQPSDTVCASVRITDPSSSRKDHSVNKMCASSCDFVKRHFFSDYLMGFINSGILKVDVDCCEKDLCNGAAG
modifications: biotin (biotinylated in vitro with BirA)
B5: the binding entry (in experiment [3]; in the experiment with full-length CD36 (human)) was “binds” in each case.

B6: NRN1 (ligand, UniProt Q9NPD7 28-116)
chain: AGKCDAVFKGFSDCLLKLGDSMANYPQGLDDKTNIKTVCTYWEDFHSCTVTALTDCQEGAKDMWDKLRKESKNLNIQGSLFELCGSGNG
modifications: biotin (biotinylated in vitro with BirA)
On to B6, for which the binding entry (in experiment [3]; with full-length CD36 (human)) was “binds” each time.
